Data as given in patent publication US10130638B2, “Prevention of adverse effects caused by CD3 specific binding domains” (AMGEN RESEARCH (MUNICH) GMBH, priority 2010, dated 2018).
For at least one compound, name, drawing or mass did not settle the structure.

How the values were obtained:
[1] = cited from earlier work
[2] = tested on: patients treated with blinatumomab; assay: Dexamethasone prophylaxis to prevent neurological adverse events during blinatumomab treatment; type: in vivo, human
Description: Besides the therapeutic use of dexamethasone to mitigate neurological adverse events, dexamethasone was also used as prophylaxis in order to prevent neurological adverse events.
Each of the following 5 patients in trial 103-104 (all with DLBCL) were treated with blinatumomab continuous infusion at 5 μg/m2/d for the 1st week, then 15 μg/m2/d for the 2nd week, and then 60 μg/m2/d for the remaining treatment period that could an additional 2-6 weeks.

[3] = tested on: patients treated with blinatumomab; assay: Therapeutic dexamethasone for neurological/psychiatric adverse events during blinatumomab treatment

| SMILES | Approx. equiv. dose [1] [mg] | Relative anti-inflammatory (glucocorticoid) potency [1] | Relative mineralocorticoid (Na+ retaining) potency [1] | Discontinuation due to neurological/psychiatric adverse events ([2]; Patient 108-010, trial 103-104, DLBCL, as other patients (20 mg dexamethasone 12 h and 1 h before) plus 100 mg prednisolone one hour before start of infusion) | Discontinuation of blinatumomab due to neurological adverse events ([2]; Patient 135-002, DLBCL, blinatumomab 5/15/60 μg/m2/d, dexamethasone 3×8 mg on day of start and on days of dose escalation) | Discontinuation of treatment due to adverse events ([2]; Patient 155-001, trial 103-206, relapsed ALL, blinatumomab 15 μg/m2/d 16 days, dexamethasone 8 mg before treatment start) | Discontinuation of treatment due to adverse events ([2]; patient with ALL, compassionate use, blinatumomab 15 μg/m2/d 4 weeks, dexamethasone day 1 3×6 mg, day 2 2×6 mg, day 3 1×6 mg p.o.) | Discontinuation due to neurological/psychiatric adverse events ([2]; trial 103-104, DLBCL, blinatumomab 5/15/60 μg/m2/d, 20 mg dexamethasone 12 h and 1 h before start and before each dose increase, one patient per block) | Discontinuation of treatment cycle due to neurological/psychiatric adverse events ([3]; Patient 109-015, follicular lymphoma, blinatumomab 60 μg/m2/d 4 weeks, dexamethasone days 4-5 3×8 mg p.o., days 6-7 1×8 mg p.o. to treat headache) | Discontinuation of treatment cycle due to neurological/psychiatric adverse events ([3]; Patient 109-017, follicular lymphoma, blinatumomab 60 μg/m2/d 5 weeks, dexamethasone p.o. days 7-15 in decreasing doses to treat tremor) | Discontinuation of treatment cycle due to neurological/psychiatric adverse events ([3]; Patient 109-026, MCL, blinatumomab 5 then 60 μg/m2/d, dexamethasone p.o. day 11 3×8 mg, day 12 2×8 mg to treat apraxia) | Course of neurological adverse events (tremor and apraxia) after dexamethasone ([3]; Patient 109-036, follicular lymphoma, blinatumomab 5 then 60 μg/m2/d continued, dexamethasone i.v. 3×8 mg) | Course of intention tremor after dexamethasone ([3]; Patient 109-038, DLBCL, blinatumomab 5/15/60 μg/m2/d continued, dexamethasone 3×8 mg i.v.) | Course of tremor and slight speech disturbance after dexamethasone ([3]; Patient 109-039, MCL, blinatumomab 5/15/60 μg/m2/d continued, dexamethasone 3×8 mg i.v.) | Neurological events after dose escalation (prophylactic effect of dexamethasone) ([3]; Patient 135-001, DLBCL, blinatumomab 5/15/60 μg/m2/d, dexamethasone 3×8 mg on d3 for tremor, decreasing over less than a week) | Course of slight speech problems after dexamethasone ([3]; Patient 153-002, MCL, blinatumomab 5/15/60 μg/m2/d, dexamethasone 3×8 mg p.o., decreasing doses over a few days) | Course of neurological and/or psychiatric symptoms after therapeutic dexamethasone ([3]; patients treated with Blinatumomab, summary statement) |
| --- | --- | --- | --- | --- | --- | --- | --- | --- | --- | --- | --- | --- | --- | --- | --- | --- | --- |
| C[C@H]1C[C@@H]2[C@H]([C@@H](O)C[C@@]3(C)[C@H]2CC[C@]3(O)C(=O)CO)[C@@]2(C)C=CC(=O)C=C12 [Methylprednisolone] | 5 | 5 | 0.5 |  |  |  |  |  |  |  |  |  |  |  |  |  |  |
| C[C@]12CCC(=O)C=C1CC[C@@H]1[C@@H]2C(=O)C[C@@]2(C)[C@H]1CC[C@]2(O)C(=O)CO [Cortisone] | 25 |  |  |  |  |  |  |  |  |  |  |  |  |  |  |  |  |
| C[C@@H]1C[C@H]2[C@@H]3CCC4=CC(=O)C=C[C@]4(C)[C@@]3(F)[C@@H](O)C[C@]2(C)[C@@]1(O)C(=O)CO [Dexamethasone] | 0.75 |  |  | did not have to discontinue | did not have to discontinue treatment | did not have to discontinue treatment | did not have to discontinue treatment | did not have to discontinue | had not to be discontinued | had not to be discontinued | had not to be discontinued | neurological adverse events resolved | resolved | resolved | no neurological events after escalation to 15 ug | completely resolved | symptoms disappeared without necessity to stop treatment |
